Laboratory results reported in PubChem BioAssay AID330 (DTP/NCI, 2004).
The list does not hold the whole screen: it gathers tests that were run many times, whatever their T/C, doses with no T/C, and many T/C values between a quarter and a half above the control. Other doses and runs of a compound stand elsewhere. T/C is the treated group as % of the vehicle group. Some entries give survivors of the animals treated and no T/C: the source holds a T/C of zero for them, seemingly a mark for toxic or unscored doses. Some doses without a T/C left all or most animals alive at the check, yet need not have been tolerated: the source hardly ever lists a survival T/C far under the control, and the zero likely stands for such cases as well. Counts of survivors are from the toxicity check (mostly the fifth day) where no day follows; animals may have died later. Schedule codes are those of the source, read here as Q, the interval in days (D) or hours (H), X, the number of doses. Some entries hold several experiments; the values are given in rising order. Where survival is the endpoint, the PubChem record calls one and a half times the control and up active, and a quarter to a half above the control has no call in these data; cut-offs in other NCI protocols can differ. Some T/C values carry the count of animals alive at the toxicity check (mostly the fifth day); where none is given, no animal had died by that day.

System: P388 leukemia ip, CD2F1 mice, survival T/C
Assay: NCI In Vivo Anticancer Drug Screen. Data for tumor model P388 Leukemia (intraperitoneal) in CD2F1 (CDF1) mice
Details: T/C endpoint: median survival time, higher T/C = longer survival
[1] = dose: 200.0 mg/kg/injection, schedule: Q01DX005 (ip), vehicle: saline with Tween-80
[2] = dose: 200.0 mg/kg/injection, schedule: Q01DX005 (ip), vehicle: saline
[3] = dose: 16.0 mg/kg/injection, schedule: Q01DX009 (ip), vehicle: water
[4] = dose: 240.0 mg/kg/injection, schedule: Q01DX005 (ip), vehicle: saline with Tween-80

Structure (SMILES): COc1ccc(C(C#N)C(=O)CCC(=O)C(C#N)c2ccc(OC)c(OC)c2)cc1OC (configuration not stated)
- survivor count (dose: 400.0 mg/kg/injection, schedule: Q04DX002 (ip), vehicle: saline with Tween-80): 2 of 6

Structure (SMILES): N=c1nc(N)ncn1-c1ccccc1
- T/C (dose: 6.25 mg/kg/injection, schedule: Q01DX005 (ip), vehicle: saline with Tween-80): 139 % of control
- survivor count (dose: 25.0 mg/kg/injection, schedule: Q01DX005 (ip), vehicle: saline with Tween-80): 3 of 5
- survivor count (dose: 50.0 mg/kg/injection, schedule: Q01DX005 (ip), vehicle: saline with Tween-80): 0 of 5
- survivor count (dose: 100.0 mg/kg/injection, schedule: Q01DX005 (ip), vehicle: saline with Tween-80): 0 of 5
- survivor count [1]: 0 of 5

Structure (SMILES): OCC1OC(n2ccc3c(Cl)ncnc32)C(O)C1O (configuration not stated)
- survivor count (dose: 50.0 mg/kg/injection, schedule: Q01DX005 (ip), vehicle: suspension in saline): 6 of 6
- survivor count (dose: 100.0 mg/kg/injection, schedule: Q01DX005 (ip), vehicle: suspension in saline): 2 of 6
- survivor count (dose: 200.0 mg/kg/injection, schedule: Q01DX005 (ip), vehicle: suspension in saline): 0 of 6

Structure (SMILES): CCCCN1COC2CCCCC21 (configuration not stated)
- T/C (dose: 50.0 mg/kg/injection, schedule: Q01DX005 (ip), vehicle: saline): 125 and 127 % of control
- T/C (dose: 100.0 mg/kg/injection, schedule: Q01DX005 (ip), vehicle: saline): 130 % of control
- T/C [2]: 128 % of control
- survivor count [2]: 2 of 6

Structure (SMILES): CN(/C(=N/C(=S)NCc1ccccc1)SCc1ccccc1)c1ccccc1
- survivor count [1]: 6 of 6

Structure (SMILES): CC(C)(O)c1cccc2c(C(C)(C)O)cccc12
- survivor count (dose: 100.0 mg/kg/injection, schedule: Q01DX009 (ip), vehicle: Klucel (hydroxypropylcellulose) (HPC)): 6 of 6

Structure (SMILES): Cc1[nH]c(=O)[nH]c(=O)c1/C=C/C(=O)NC(CO)CS(=O)C(C)C (configuration not stated)
- T/C [3]: 125 % of control

Structure (SMILES): [Cu+2].[O-]/C(=N\N=C/c1ccco1)c1ccccc1O.[O-]/C(=N\N=C/c1ccco1)c1ccccc1O.[OH3+].[OH3+]
- survivor count (dose: 100.0 mg/kg/injection, schedule: Q04DX002 (ip), vehicle: saline with Tween-80): 6 of 6
- survivor count (dose: 200.0 mg/kg/injection, schedule: Q04DX002 (ip), vehicle: saline with Tween-80): 5 of 6

Structure (SMILES): O=NNc1ccc(-c2ccc([N+](=O)[O-])cc2)cn1
- T/C (dose: 1.56 mg/kg/injection, schedule: Q01DX009 (ip), vehicle: saline): 144 % of control
- T/C (dose: 3.12 mg/kg/injection, schedule: Q01DX009 (ip), vehicle: saline): 138 % of control [5 of 6 alive]
- survivor count (dose: 6.25 mg/kg/injection, schedule: Q01DX009 (ip), vehicle: saline): 5 of 6
- survivor count (dose: 12.5 mg/kg/injection, schedule: Q01DX009 (ip), vehicle: saline): 3 of 6 and 5 of 6
- survivor count (dose: 25.0 mg/kg/injection, schedule: Q01DX009 (ip), vehicle: saline): 1 of 6
- survivor count (dose: 50.0 mg/kg/injection, schedule: Q01DX009 (ip), vehicle: saline): 0 of 6

Structure (SMILES): O=C1CCC2CN3CCc4c([nH]c5ccccc45)C3CC2C1 (configuration not stated)
- survivor count [4]: 4 of 6

Structure (SMILES): COc1cc(/C=N/N2CC(=O)N(c3cccc(Cl)c3)CC2=O)cc(OC)c1
- survivor count (dose: 60.0 mg/kg/injection, schedule: Q01DX005 (ip), vehicle: saline with Tween-80): 6 of 6
- survivor count (dose: 120.0 mg/kg/injection, schedule: Q01DX005 (ip), vehicle: saline with Tween-80): 6 of 6
- survivor count [4]: 5 of 6

Structure (SMILES): CC(C)C/C=C/CCCCCCCCCC(=O)NCC(=O)NC1C(C)OC(Nc2ncnc3nc[nH]c23)C(O)C1O (configuration not stated)
- T/C (dose: 0.25 mg/kg/injection, schedule: Q01DX009 (ip), vehicle: water): 137 % of control
- T/C (dose: 2.0 mg/kg/injection, schedule: Q01DX009 (ip), vehicle: water): 128 and 133 % of control
- T/C (dose: 4.0 mg/kg/injection, schedule: Q01DX009 (ip), vehicle: water): 148 % of control
- T/C [3]: 143 % of control
